Source: PubChem BioAssay AID250 (DTP/NCI, 2004)
The list does not hold the whole screen: it is rich in T/C values a quarter to a half above the control, in often repeated tests (any T/C) and in doses without a T/C. Other doses and runs of a compound stand elsewhere. T/C gives the treated animals as a percentage of the vehicle group. For survival time, this PubChem deposit counts one and a half times the control or more as active, and values a quarter to a half above the control carry no call in these data; other NCI protocols may use other cut-offs. Schedules are NCI's codes, read here as Q, the interval in days (D) or hours (H), X, the number of doses. Some schedule codes hold Z or #, which are not explained here. Signs of the kind (2×) count equal records among those shown. Some T/C values carry the count of animals alive at the toxicity check (mostly the fifth day); without a count, all were alive then. Some doses were run more than once; the results are listed from low to high.

Test system: BDF1 mice, L1210 leukemia sc
Experiment: NCI In Vivo Anticancer Drug Screen. Data for tumor model L1210 Leukemia (subcutaneous) in B6D2F1 (BDF1) mice
Details: T/C endpoint: median survival time, higher T/C = longer survival
How it was run: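 Transplantable tumor-bearing mice; survival or tumor size recorded; result = T/C, treated vs vehicle control.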

S=c1nc[nH]c2nc[nH]c12
T/C (dose: 20.0 mg/kg/injection, schedule: Q01DX009 (ip), vehicle: other): 137 % of control | T/C (dose: 23.0 mg/kg/injection, schedule: Q## X Z (sc), vehicle: other): 147 % of control (2×) | T/C (dose: 23.3 mg/kg/injection, schedule: Q01DX Z (sc), vehicle: methylcellulose (MC)): 145 % of control | T/C (dose: 25.0 mg/kg/injection, schedule: Q01DX012 (ip), vehicle: other): 133 % of control | T/C (dose: 28.0 mg/kg/injection, schedule: Q01DX Z (sc), vehicle: methylcellulose (MC)): 135 % of control | T/C (dose: 38.9 mg/kg/injection, schedule: Q01DX Z (sc), vehicle: methylcellulose (MC)): 145 % of control | T/C (dose: 39.0 mg/kg/injection, schedule: Q01DX Z (sc), vehicle: methylcellulose (MC)): 136 % of control [7 of 10 alive] | T/C (dose: 39.0 mg/kg/injection, schedule: Q01DX Z (sc), vehicle: other, evaluated on day 40): 130 % of control | T/C (dose: 39.0 mg/kg/injection, schedule: Q01DX Z (sc), vehicle: other, run until all animals had died): 147 % of control | T/C (dose: 39.0 mg/kg/injection, schedule: Q## X Z (sc), vehicle: other): 147 % of control | T/C (dose: 40.0 mg/kg/injection, schedule: Q01DX009 (sc), vehicle: other): 143 % of control | T/C (dose: 46.8 mg/kg/injection, schedule: Q01DX Z (sc), vehicle: other): 129 % of control | T/C (dose: 60.0 mg/kg/injection, schedule: Q01DX009 (ip), vehicle: saline, evaluated on day 5): 147 % of control | T/C (dose: 60.0 mg/kg/injection, schedule: Q01DX009 (ip), vehicle: saline, evaluated on day 8): 147 % of control | T/C (dose: 60.0 mg/kg/injection, schedule: Q01DX009 (ip), vehicle: saline, evaluated on day 30): 144 % of control | T/C (dose: 64.8 mg/kg/injection, schedule: Q01DX Z (sc), vehicle: methylcellulose (MC)): 140 and 145 % of control | T/C (dose: 65.0 mg/kg/injection, schedule: Q01DX Z (sc), vehicle: methylcellulose (MC)): 145 % of control [7 of 10 alive] | T/C (dose: 65.0 mg/kg/injection, schedule: Q01DX Z (sc), vehicle: other, run until all animals had died): 136 % of control | T/C (dose: 65.0 mg/kg/injection, schedule: Q## X Z (sc), vehicle: other): 136 % of control | T/C (dose: 65.0 mg/kg/injection, schedule: Q#A X Z (sc), vehicle: other): 147 % of control | T/C (dose: 100.0 mg/kg/injection, schedule: Q01DX012 (ip), vehicle: other): 138 % of control | T/C (dose: 108.0 mg/kg/injection, schedule: Q01DX Z (sc), vehicle: methylcellulose (MC)): 127, 130, 140, 145 % of control | T/C (dose: 108.0 mg/kg/injection, schedule: Q01DX Z (sc), vehicle: other, run until all animals had died): 147 % of control | T/C (dose: 108.0 mg/kg/injection, schedule: Q## X Z (sc), vehicle: other): 126 % of control | T/C (dose: 108.0 mg/kg/injection, schedule: Q#A X Z (sc), vehicle: other): 147 % of control | T/C (dose: 130.0 mg/kg/injection, schedule: Q01DX Z (oral), vehicle: methylcellulose (MC)): 136 % of control | T/C (dose: 130.0 mg/kg/injection, schedule: Q01DX Z (sc), vehicle: methylcellulose (MC)): 140 % of control | T/C (dose: 180.0 mg/kg/injection, schedule: Q01DX001 (sc), vehicle: other): 126 % of control | T/C (dose: 180.0 mg/kg/injection, schedule: Q01DX Z (oral), vehicle: methylcellulose (MC)): 140 % of control [9 of 10 alive] | T/C (dose: 180.0 mg/kg/injection, schedule: Q01DX Z (oral), vehicle: other): 140 % of control | T/C (dose: 180.0 mg/kg/injection, schedule: Q01DX Z (sc), vehicle: methylcellulose (MC)): 131 % of control | T/C (dose: 180.0 mg/kg/injection, schedule: Q01DX Z (sc), vehicle: other, run until all animals had died): 142 and 144 % of control | T/C (dose: 180.0 mg/kg/injection, schedule: Q02DX Z (sc), vehicle: other): 147 % of control | T/C (dose: 180.0 mg/kg/injection, schedule: Q07DX Z (sc), vehicle: other): 126 % of control | T/C (dose: 180.0 mg/kg/injection, schedule: Q## X Z (sc), vehicle: other): 126 and 147 % of control | T/C (dose: 180.0 mg/kg/injection, schedule: Q#A X Z (sc), vehicle: other): 147 % of control | T/C (dose: 216.0 mg/kg/injection, schedule: Q01DX Z (sc), vehicle: methylcellulose (MC)): 130 % of control | T/C (dose: 216.0 mg/kg/injection, schedule: Q01DX Z (sc), vehicle: other): 133 % of control [9 of 10 alive] | T/C (dose: 300.0 mg/kg/injection, schedule: Q01DX001 (sc), vehicle: other): 126 % of control [6 of 8 alive] | T/C (dose: 300.0 mg/kg/injection, schedule: Q01DX Z (oral), vehicle: other): 135 % of control | T/C (dose: 300.0 mg/kg/injection, schedule: Q01DX Z (sc), vehicle: methylcellulose (MC)): 127 % of control | T/C (dose: 300.0 mg/kg/injection, schedule: Q01DX Z (sc), vehicle: other): 127, 130 [8 of 10 alive], 140 % of control | T/C (dose: 500.0 mg/kg/injection, schedule: Q01DX Z (oral), vehicle: methylcellulose (MC)): 140 % of control | T/C (dose: 500.0 mg/kg/injection, schedule: Q02DX Z (sc), vehicle: other): 127 % of control [8 of 10 alive]
